Percent effect of library compounds

Data taken from ChEMBL document CHEMBL3988442, “University of Dundee, Small-Polar-MMV Screening Library” (2021).

Mtb cholesterol medium: 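Phenotypic screen: M. tuberculosis growth, cholesterol and DPPC medium, 4 days; the read-out is not stated. Tested at 50 µM. Higher reads as more growth inhibition (inferred: compounds with an IC50 in retests scored well above the rest). About 69,000 compounds were tested under these conditions; 0.54% (about 370) showed 50% or more at least once.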
Mtb glucose medium: 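Growth of Mycobacterium tuberculosis over 3 days (7H9 medium with glucose and tyloxapol); the read-out is not stated. Tested at 50 µM. Direction is inferred from retests: higher values go with more growth inhibition. About 69,000 compounds were tested under these conditions; 1.1% (about 760) showed 50% or more at least once.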

Each number is a percent effect as filed.
The record does not define 0% and 100%; most values in the screen are far below 50% and negative numbers occur (in some assays of this library far below -100).
The compounds are a random part of those screened.
Two or more numbers in one place are separate tests of the same structure; such repeats can differ widely.

structure,Mtb cholesterol medium,Mtb glucose medium
Cc1cccc(CC(=O)N2CCCC(c3n[nH]c4nccnc34)C2)c1 (stereo not given),-5.26%,14.57%
CC(Sc1nnc(C2CC2)n1CC(N)=O)c1ccc(F)cc1F (stereo not given),-5.778% & -8.976%,-42.37%
COc1cccc(C(=O)N2CCCCC2CNC(N)=O)c1 (stereo not given),-17.69%,3.635%
O=C(Cc1ccc2c(c1)OCC2)Nc1nc(C(F)(F)F)n[nH]1,10.57%,5.241%
COCC1CCCCN1C(=O)c1cc(-c2cccc(OC)c2)n[nH]1 (stereo not given),-3.277%,9.359%
[H][C@@]12CCN(C(=O)c3cnccn3)C[C@@]1([H])O[C@@H](c1nc(C)cs1)C2,-6.625% & -7.336%,15.31% & 10.18%
CC(C)N1CCC(CC(=O)N2CCC(C(O)c3nccn3C)CC2)CC1 (stereo not given),-29.22%,-8.33% & -4.426%
CN1CCN(C2CCN(CCOc3ccc(C#N)cc3)CC2)C1=O,-11.66%,16.95%
CN(Cc1cnn(C)c1)C(CO)c1cccc(Br)c1 (stereo not given),-3.257%,-9.2%
[H][C@@]12CN(C(=O)Cc3ccccn3)C[C@]1([H])[C@@H]2CC(=O)Nc1cccnc1,-30.62%,-20%
Cl.c1cc(CNCc2ccc(Cn3cncn3)cc2)c2c(c1)OCCO2,-7.774%,-16.71%
O=C(O)C(F)(F)F.O=C(O)C(F)(F)F.[H][C@]12CC(=O)N(Cc3cccc(C)n3)[C@@]1([H])CCN2Cc1cccs1,-15.74%,-1.72%
O=C(O)C(F)(F)F.[H][C@@]12CCN(C(=O)C(C)C)CC[C@]1(C(=O)N1CCOCC1)CCN2C,-8.306%,-37.13%
O=S(=O)(Cc1ccccc1)NCCNc1ccc(-n2cccc2)nn1,-4.075%,33.57% & -2.185%
Cc1ccc(CN(Cc2cccnc2)C2CC(C)(C)NC(C)(C)C2)s1.O=C(O)CC(O)(CC(=O)O)C(=O)O,-5.667%,-17%
Cc1ccccc1CC(=O)NCc1cnc(CC2CCN(C)CC2)cn1,-12.11% & 6.462%,2.766%
OCC(O)CSCc1cn(-c2ccc(Cl)c(Cl)c2)nn1 (stereo not given),-4.525%,24.74%
Cc1nc(CNC(=O)NCc2ccc(OCC3CC3)nc2)cs1,0.2133%,21.52%
N#Cc1ccc(N2CCC3(CCC(=O)N3Cc3cccnc3)CC2)nc1.O=C(O)C(F)(F)F.O=C(O)C(F)(F)F,-13.19%,-1.327%
CNC(=O)CS(=O)(=O)Cc1coc(-c2ccc(OC)cc2)n1,4.493%,0.588%
CC(C)NC(=O)CN1CCC2(CC1)OCCO2,7.183%,-13.05%
CCN(CC)S(=O)(=O)c1ccc(CCC(=O)NCc2cc(C)on2)cc1,-14.56%,-15.53%
CN1CCCC1CNC(=O)CCCOCc1ccccc1 (stereo not given),-4.577%,18.78%
CC(O)CN1CCC(CN(C)Cc2cccc(C#N)c2)CC1 (stereo not given),14.33%,11.95%
CCN(CC1CCOCC1)C(=O)Cn1cccc(C(F)(F)F)c1=O,1.422%,-11.63%
O=C(Nc1cccnc1-n1cc(Cl)cn1)C1CCCCC1,2.508%,27.63%
[H][C@@]12COC[C@]1(COC)CN(C(=O)C1CC(F)(F)C1)C2,-3.182%,-3.054% & 27.32%
CC(C)N(C)Cc1cncc2c1CCN(Cc1cccs1)C2.Cl.Cl.Cl,-1.635%,3.683%
Fc1ccc2nc([C@H]3CCNC3)[nH]c2c1,8.786%,4.533% & 37.83%
CN(Cc1ccsc1)C(=O)c1nc(N2CCCCC2)ncc1Cl,-5.354%,5.276% & -3.526%
CC1CN(C(=O)c2cc(=O)[nH]c3ccc(F)cc23)CCO1 (stereo not given),-24.83%,6.127%
CN1CCC(c2cncc(C(=O)NCc3ccc(F)cc3)n2)CC1,21.98%,35.33%
Clc1cnccc1NCc1cccc(COC2CCOCC2)c1,-2.645%,-2.216% & 1.65%
COc1ccc(C)cc1S(=O)(=O)NCC(c1cccn1C)N(C)C (stereo not given),-19.08%,-5.894% & -7.637%
CNC(=O)NCc1nn(-c2ccccc2)c2c1CCC2,1.274%,33.85%
CCn1ccnc1C1CCN(C(=O)C(O)c2ccc(Cl)cc2)CC1 (stereo not given),-28.65%,-4.626%
O=C(O)C(F)(F)F.O=C(O)C(F)(F)F.O=C(O)C(F)(F)F.[H][C@@]12CN(Cc3cccnc3)CCO[C@]1([H])CN(Cc1ccccc1OC)C2,6.081%,-7.685% & -18.78%
C[C@@H]1CN(Cc2cc3ccccc3n2C)CC[C@@]1(O)C1CC1,16.74%,23.53%
CC/C=C(/C)C(=O)NS(=O)(=O)c1ccc(C#N)c(C(F)(F)F)c1,11.89%,-15.64%
O=C(O)C(F)(F)F.O=C(O)C(F)(F)F.[H][C@@]12CCN(c3nncs3)C[C@@]1([H])O[C@@H](C(=O)Nc1cccnc1)C2,12.61% & -5.023%,16.59%
Cc1ncsc1C(=O)NCCNc1cnccn1,-20.84%,-1.066%
O=C(c1cc(Cl)c2c(c1)OCO2)N1CCCC(n2ccnc2)C1 (stereo not given),6.163%,8.26%
CCCNC(=O)CNc1ccc2c(c1)N(C(=O)OC(C)(C)C)CCC2,-35.02%,11.27% & -15.73%
O=C(N[C@@H]1CC[C@@H](N2CCOCC2)[C@@H]1O)c1cnn2cccnc12,-45.09%,-17.31%
CC1CCN(C(=O)Cn2cc(I)cn2)CC1,12.17%,5.066% & 14.7%
COc1ccc(Br)cc1CN(C)c1nc2c(cnn2C)c(=O)[nH]1,-17.09%,1.464%
CCCN1C[C@H](NC(=O)c2ccccc2F)[C@@H](c2ccc(OC)cc2)C1,5.274%,23.5%
CC(=O)NCCNC(=O)CN1CCCC1Cn1nc(C)nc1C (stereo not given),22.21%,3.334%
CN[C@@H](C)C(=O)N(Cc1cccc(C)c1)Cc1ccccc1OC,4.162%,11.15% & -6.403%
O=C(O)C(F)(F)F.O=C(O)C(F)(F)F.O=C(O)C(F)(F)F.[H][C@@]12COC[C@@H](N3CCN(C)CC3)[C@]1([H])CN(Cc1ccc(OC)cc1)C2,-2.392% & -17.15%,-13.34%
CCN(CC1CCCO1)C(=O)Nc1cccc(Cl)c1OC (stereo not given),-11.37%,0.4005% & -1.056%
O=C(NCC(O)(c1ccco1)C1CC1)c1c(F)cccc1Cl (stereo not given),-26.06%,-12.6%
Cc1noc(CNc2cc3c(cc2Cl)NC(=O)CO3)n1,-7.409%,-16.69%
Cc1c(C(=O)N2CCC(N3CCCCC3)CC2)n(C)c2ccc(Cl)cc12,23.32%,24.58%
Cc1cnn(CCNCc2ccccc2F)c1,-2.613%,27.66%
CC(C)n1ccnc1CN1CCCN(C(=O)c2ncccc2O)CC1,-4.741%,-24.75%
Cc1cc(O)nc(C2CN(CCO)CCO2)n1 (stereo not given),27.69%,-11.88%
CN(C)S(=O)(=O)c1ccc2c(c1)N(Cc1nccn1C)CC2,-6.366%,-6.982%
CC(=O)N(Cc1ncc(C)o1)C1CCN(CCNC2CCCCC2)C1 (stereo not given),-7.793%,-36.6%
Cc1[nH]ncc1C(=O)N1CCOC(c2cccs2)C1 (stereo not given),-2.124%,-20.38%
O=C(c1ncoc1C1CC1)N1CCCN(CCCc2ccccc2)CC1,19.52%,42.57% & 23.04%
Cc1cccc(N2CCC3(CCN(Cc4ccccn4)CC3)CC2)n1.O=C(O)C(F)(F)F.O=C(O)C(F)(F)F,-10.61%,13.93%
COc1coc(C(=O)Nc2ccncc2)cc1=O,-12.83%,-10.99%
CS(=O)(=O)NCC(=O)N[C@H]1CN(CC2CC2)C[C@@H]1c1ccccc1,21.62%,-1.836% & 13.86%
COCC(=O)N1CCc2[nH]nc(-c3ccc4c(c3)OCO4)c2C1,-11.5% & -5.066%,14.63% & -0.5033%

The last 8 entries again:

structure,Mtb cholesterol medium,Mtb glucose medium
CN(C)S(=O)(=O)c1ccc2c(c1)N(Cc1nccn1C)CC2,-6.366%,-6.982%
CC(=O)N(Cc1ncc(C)o1)C1CCN(CCNC2CCCCC2)C1 (stereo not given),-7.793%,-36.6%
Cc1[nH]ncc1C(=O)N1CCOC(c2cccs2)C1 (stereo not given),-2.124%,-20.38%
O=C(c1ncoc1C1CC1)N1CCCN(CCCc2ccccc2)CC1,19.52%,42.57% & 23.04%
Cc1cccc(N2CCC3(CCN(Cc4ccccn4)CC3)CC2)n1.O=C(O)C(F)(F)F.O=C(O)C(F)(F)F,-10.61%,13.93%
COc1coc(C(=O)Nc2ccncc2)cc1=O,-12.83%,-10.99%
CS(=O)(=O)NCC(=O)N[C@H]1CN(CC2CC2)C[C@@H]1c1ccccc1,21.62%,-1.836% & 13.86%
COCC(=O)N1CCc2[nH]nc(-c3ccc4c(c3)OCO4)c2C1,-11.5% & -5.066%,14.63% & -0.5033%